Measurements taken from PMC9282857.
No constants are given. Whether binding was seen depends on the method and setting. For some assays here: In cells and extracts the contact can be indirect. For some assays here: A result given as binding can be weak or reduced; the word gives no strength. For some assays here: Tags and fused reporters may be left off the sequences shown.

The chains behind the UniProt entries cited, without tags or fusion partners. Where a name states a change or a piece, a line headed by the entry shows the natural chain unless it says otherwise. Residues count along the entry.
UniProt P39940, residues 224-809: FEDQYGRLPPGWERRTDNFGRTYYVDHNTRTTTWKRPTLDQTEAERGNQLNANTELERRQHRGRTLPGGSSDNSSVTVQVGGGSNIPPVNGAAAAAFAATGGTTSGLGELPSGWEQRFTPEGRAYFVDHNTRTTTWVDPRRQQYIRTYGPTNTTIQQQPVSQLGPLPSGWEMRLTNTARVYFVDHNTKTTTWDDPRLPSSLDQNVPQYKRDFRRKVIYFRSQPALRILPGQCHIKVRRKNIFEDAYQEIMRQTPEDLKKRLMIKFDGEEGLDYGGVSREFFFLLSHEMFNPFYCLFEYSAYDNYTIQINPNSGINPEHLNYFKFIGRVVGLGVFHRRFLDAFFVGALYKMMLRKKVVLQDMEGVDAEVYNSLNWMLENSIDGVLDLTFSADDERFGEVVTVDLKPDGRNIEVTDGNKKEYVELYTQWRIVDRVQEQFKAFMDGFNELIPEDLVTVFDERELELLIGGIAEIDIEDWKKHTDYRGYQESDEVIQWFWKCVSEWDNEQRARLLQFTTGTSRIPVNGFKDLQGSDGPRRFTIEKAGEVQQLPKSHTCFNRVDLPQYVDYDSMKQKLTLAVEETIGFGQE
UniProt P53244: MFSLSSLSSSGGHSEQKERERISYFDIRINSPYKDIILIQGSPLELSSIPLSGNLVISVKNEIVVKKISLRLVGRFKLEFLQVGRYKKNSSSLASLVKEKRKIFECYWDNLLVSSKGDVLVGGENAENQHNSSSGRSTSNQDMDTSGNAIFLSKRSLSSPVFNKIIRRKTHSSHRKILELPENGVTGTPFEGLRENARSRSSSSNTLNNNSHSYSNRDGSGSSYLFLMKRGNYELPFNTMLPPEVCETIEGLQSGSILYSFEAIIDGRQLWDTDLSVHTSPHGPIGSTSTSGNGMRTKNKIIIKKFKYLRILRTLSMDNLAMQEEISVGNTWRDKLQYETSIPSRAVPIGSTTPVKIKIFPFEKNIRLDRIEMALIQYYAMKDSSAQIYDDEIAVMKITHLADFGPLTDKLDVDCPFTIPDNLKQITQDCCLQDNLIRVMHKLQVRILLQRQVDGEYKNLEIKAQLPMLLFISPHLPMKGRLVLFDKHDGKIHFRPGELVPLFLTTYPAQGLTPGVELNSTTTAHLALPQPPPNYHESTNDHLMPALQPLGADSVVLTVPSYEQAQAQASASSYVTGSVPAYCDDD

How the values were obtained:
[1] = biological target: T1, Mup1-GFP (S. cerevisiae) (UniProt P50276); test: co-IP; yeast lysate in IP buffer with 1% Triton X-100; GFP-tagged cargo bound to GFP-nanotrap resin 2 hr at 4°C; ART protein detected by blot
T1 sequence: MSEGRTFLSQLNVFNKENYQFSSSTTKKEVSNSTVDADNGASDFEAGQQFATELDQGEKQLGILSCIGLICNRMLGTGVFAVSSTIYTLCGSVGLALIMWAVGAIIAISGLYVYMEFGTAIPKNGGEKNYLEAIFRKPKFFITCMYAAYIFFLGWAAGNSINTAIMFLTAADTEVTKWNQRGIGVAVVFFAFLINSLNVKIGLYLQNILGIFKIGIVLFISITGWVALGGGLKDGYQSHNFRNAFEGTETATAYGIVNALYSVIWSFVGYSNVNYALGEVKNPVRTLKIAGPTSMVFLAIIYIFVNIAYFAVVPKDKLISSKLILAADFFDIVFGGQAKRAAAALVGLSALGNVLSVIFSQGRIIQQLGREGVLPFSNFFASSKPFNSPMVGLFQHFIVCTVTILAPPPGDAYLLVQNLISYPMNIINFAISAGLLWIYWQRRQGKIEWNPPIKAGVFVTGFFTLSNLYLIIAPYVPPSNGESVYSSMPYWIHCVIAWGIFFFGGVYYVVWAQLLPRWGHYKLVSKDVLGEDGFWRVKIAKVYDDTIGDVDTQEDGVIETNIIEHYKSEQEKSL

[2] = biological target: Rsp5 WW1-HECT domain (224-809) (S. cerevisiae) (UniProt P39940); test: ITC; Affinity-ITC calorimeter, 25°C; 20 mM Tris-HCl pH 7.5, 150 mM NaCl, 1 mM DTT; independent binding model; both purified

binding [1] | binding [2] | Substance
binds | – | art1^K486R (S. cerevisiae)
– | no binding | Art5 PY motif mutant (PY motifs containing region) (from UniProt P53244) (domain or fragment)
